From paper PMC9731993
These are yes or no findings as the source states them, for the method shown. Binding seen in cells or lysates may run through a third protein. Some entries that bind do so weakly or less than the wild type.

Protein sequences, listed by entry. Tags and fused reporters are not part of them.
UniProt P10415: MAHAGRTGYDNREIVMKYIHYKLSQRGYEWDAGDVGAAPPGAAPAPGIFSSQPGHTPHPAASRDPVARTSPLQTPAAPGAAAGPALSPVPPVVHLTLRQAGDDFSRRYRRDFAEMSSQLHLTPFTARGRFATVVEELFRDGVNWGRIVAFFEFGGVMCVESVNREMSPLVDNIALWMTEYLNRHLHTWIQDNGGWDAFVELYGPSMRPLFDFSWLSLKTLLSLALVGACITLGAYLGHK

Target: Beclin-1 (human (endogenous in A2780CP and COC1/DDP)) (UniProt Q14457)
Test: co-IP; endogenous proteins in lysates of A2780CP and COC1/DDP cells, NT control or CUL4A/DDB1 knock-down; interaction of BECN1 with BCL2 and ATG14L; precipitating antibody not stated

With BCL2 (from UniProt P10415 1-239) the binding was “binds”.
